# The other results are listed elsewhere or left out.
# B1: Mnn9-2N3 (Aspergillus fumigatus) (protein)
# chain: MAVARRMRRTNPITLLLAAILAIGFFIFVLSPSTTSASPVKAGSASSSSTSQQRREDNAAENPLSPPTKPFFKSQPVRHDGQQAPPPVVQYNLNQLSSTSTSAANGERILILTPMARFVPEYWDNVVKLTYPHELISIGFIIPKNKEGNAALAALEAAIAKTQSGPIDKRFASISILRQDFEPPLQSQDEKERHKISNQKARRESMSRARNSLLFTTLGPATAWVLWLDADIVETPPTLIQDLTAHDHPVLVPNCYQRYYNSEKKKMDVRPYDYNSWIDSSTAQSMAAEMGPDEILLEGYAEMPTYRTLMAHLADTANPNPKKVIELDGVGGTALMVKAEVHRDGAMFPAFPFYHLVETEGFAKMAKRLGYSVYGLPDYFVSRNFFFFFFFFFFG
# Experiments:
# Test in all cases: glycan array binding signal (z-score within array); higher = stronger binding
# Conditions in all cases: glycan notation: IUPAC condensed, linker removed
# Neu5Ac(a2-3)GalNAc = target: Neu5Ac(a2-3)GalNAc
# Outline: (§1)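 Glycan array binding is given as a within-array Z-score, which can be read as non-binding when negative. The arrays, 3228 of them, came from the Consortium for Functional Glycomics database and were retained only where the protein sequence was available. Z-scores were averaged across arrays of the same protein sequence at different concentrations or buffers and across linkers.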
# [1] = target: Neu5Ac(a2-3)GalNAc(b1-4)GlcNAc
# Outline: as §1
# [2] = target: Neu5Ac(a2-3)[GalNAc(b1-4)]Gal(b1-4)Glc
# Outline: as §1
# [3] = target: Neu5Ac(a2-3)[GalNAc(b1-4)]Gal(b1-4)GlcNAc
# Outline: as §1
# [4] = target: Neu5Ac(a2-3)[GalNAc(b1-4)]Gal(b1-4)GlcNAc(b1-3)GalNAc
# Outline: as §1
# [5] = target: Neu5Ac(a2-3)[Neu5Ac(a2-6)]GalNAc
# Outline: as §1
# Neu5Ac(a2-6)Gal = target: Neu5Ac(a2-6)Gal
# Outline: as §1
# [6] = target: Neu5Ac(a2-6)Gal(b1-3)GlcNAc(b1-3)[Gal(b1-4)GlcNAc(b1-6)]Gal(b1-4)Glc
# Outline: as §1
# Neu5Ac(a2-6)Gal(b1-4)Glc = target: Neu5Ac(a2-6)Gal(b1-4)Glc
# Outline: as §1
# [7] = target: Neu5Ac(a2-6)Gal(b1-4)GlcNAc
# Outline: as §1
# [8] = target: Neu5Ac(a2-6)Gal(b1-4)GlcNAc(b1-2)Man
# Outline: as §1
# [9] = target: Neu5Ac(a2-6)Gal(b1-4)GlcNAc(b1-2)Man(a1-3)Man(b1-4)GlcNAc(b1-4)GlcNAc
# Outline: as §1
# [10] = target: Neu5Ac(a2-6)Gal(b1-4)GlcNAc(b1-2)Man(a1-3)[Gal(b1-4)GlcNAc(b1-2)Man(a1-6)]Man(b1-4)GlcNAc(b1-4)GlcNAc
# Outline: as §1
# [11] = target: Neu5Ac(a2-6)Gal(b1-4)GlcNAc(b1-2)Man(a1-3)[GlcNAc(b1-2)Man(a1-6)]Man(b1-4)GlcNAc(b1-4)GlcNAc
# Outline: as §1
# [12] = target: Neu5Ac(a2-6)Gal(b1-4)GlcNAc(b1-2)Man(a1-3)[GlcNAc(b1-4)][Neu5Ac(a2-6)Gal(b1-4)GlcNAc(b1-2)Man(a1-6)]Man(b1-4)GlcNAc(b1-4)GlcNAc
# Outline: as §1
# [13] = target: Neu5Ac(a2-6)Gal(b1-4)GlcNAc(b1-2)Man(a1-3)[Man(a1-6)]Man(b1-4)GlcNAc(b1-4)GlcNAc
# Outline: as §1
# [14] = target: Neu5Ac(a2-6)Gal(b1-4)GlcNAc(b1-2)Man(a1-3)[Neu5Ac(a2-3)Gal(b1-4)GlcNAc(b1-2)Man(a1-6)]Man(b1-4)GlcNAc(b1-4)GlcNAc
# Outline: as §1
# [15] = target: Neu5Ac(a2-6)Gal(b1-4)GlcNAc(b1-2)Man(a1-3)[Neu5Ac(a2-6)Gal(b1-4)GlcNAc(b1-2)Man(a1-6)]Man(b1-4)GlcNAc(b1-4)GlcNAc
# Outline: as §1
# [16] = target: Neu5Ac(a2-6)Gal(b1-4)GlcNAc(b1-2)Man(a1-3)[Neu5Ac(a2-6)Gal(b1-4)GlcNAc(b1-2)Man(a1-6)]Man(b1-4)GlcNAc(b1-4)[Fuc(a1-6)]GlcNAc
# Outline: as §1
# [17] = target: Neu5Ac(a2-6)Gal(b1-4)GlcNAc(b1-2)Man(a1-6)Man(b1-4)GlcNAc(b1-4)GlcNAc
# Outline: as §1
# [18] = target: Neu5Ac(a2-6)Gal(b1-4)GlcNAc(b1-2)Man(a1-6)[Gal(b1-4)GlcNAc(b1-2)Man(a1-3)]Man(b1-4)GlcNAc(b1-4)GlcNAc
# Outline: as §1
# [19] = target: Neu5Ac(a2-6)Gal(b1-4)GlcNAc(b1-2)Man(a1-6)[GlcNAc(b1-2)Man(a1-3)]Man(b1-4)GlcNAc(b1-4)GlcNAc
# Outline: as §1
# [20] = target: Neu5Ac(a2-6)Gal(b1-4)GlcNAc(b1-2)Man(a1-6)[Man(a1-3)]Man(b1-4)GlcNAc(b1-4)GlcNAc
# Outline: as §1
# [21] = target: Neu5Ac(a2-6)Gal(b1-4)GlcNAc(b1-2)[Neu5Ac(a2-6)Gal(b1-4)GlcNAc(b1-4)]Man(a1-3)[GlcNAc(b1-4)][Neu5Ac(a2-6)Gal(b1-4)GlcNAc(b1-2)[Neu5Ac(a2-6)Gal(b1-4)GlcNAc(b1-6)]Man(a1-6)]Man(b1-4)GlcNAc(b1-4)GlcNAc
# Outline: as §1
# [22] = target: Neu5Ac(a2-6)Gal(b1-4)GlcNAc(b1-2)[Neu5Ac(a2-6)Gal(b1-4)GlcNAc(b1-4)]Man(a1-3)[GlcNAc(b1-4)][Neu5Ac(a2-6)Gal(b1-4)GlcNAc(b1-4)Man(a1-6)]Man(b1-4)GlcNAc(b1-4)GlcNAc
# Outline: as §1
# [23] = target: Neu5Ac(a2-6)Gal(b1-4)GlcNAc(b1-2)[Neu5Ac(a2-6)Gal(b1-4)GlcNAc(b1-6)]Man(a1-6)[Neu5Ac(a2-6)Gal(b1-4)GlcNAc(b1-2)Man(a1-3)][GlcNAc(b1-4)]Man(b1-4)GlcNAc(b1-4)GlcNAc
# Outline: as §1
# [24] = target: Neu5Ac(a2-6)Gal(b1-4)GlcNAc(b1-3)Gal(b1-3)GlcNAc
# Outline: as §1
# [25] = target: Neu5Ac(a2-6)Gal(b1-4)GlcNAc(b1-3)Gal(b1-4)GlcNAc
# Outline: as §1
# [26] = target: Neu5Ac(a2-6)Gal(b1-4)GlcNAc(b1-3)Gal(b1-4)GlcNAc(b1-2)Man(a1-3)[Neu5Ac(a2-6)Gal(b1-4)GlcNAc(b1-3)Gal(b1-4)GlcNAc(b1-2)Man(a1-6)]GalNAc
# Outline: as §1
# [27] = target: Neu5Ac(a2-6)Gal(b1-4)GlcNAc(b1-3)Gal(b1-4)GlcNAc(b1-3)Gal(b1-4)GlcNAc
# Outline: as §1
# [28] = target: Neu5Ac(a2-6)Gal(b1-4)GlcNAc(b1-3)Gal(b1-4)GlcNAc(b1-3)Gal(b1-4)GlcNAc(b1-2)Man(a1-3)[Neu5Ac(a2-6)Gal(b1-4)GlcNAc(b1-3)Gal(b1-4)GlcNAc(b1-3)Gal(b1-4)GlcNAc(b1-2)Man(a1-6)]GalNAc
# Outline: as §1
# [29] = target: Neu5Ac(a2-6)Gal(b1-4)GlcNAc(b1-3)Gal(b1-4)GlcNAc(b1-3)GalNAc
# Outline: as §1
# [30] = target: Neu5Ac(a2-6)Gal(b1-4)GlcNAc(b1-3)Gal(b1-4)GlcNAc(b1-3)[Neu5Ac(a2-6)Gal(b1-4)GlcNAc(b1-3)Gal(b1-4)GlcNAc(b1-6)]GalNAc
# Outline: as §1
# [31] = target: Neu5Ac(a2-6)Gal(b1-4)GlcNAc(b1-3)Gal(b1-4)GlcNAc(b1-6)[Gal(b1-3)]GalNAc
# Outline: as §1
# [32] = target: Neu5Ac(a2-6)Gal(b1-4)GlcNAc(b1-3)Gal(b1-4)[Fuc(a1-3)]GlcNAc(b1-3)Gal(b1-4)[Fuc(a1-3)]GlcNAc
# Outline: as §1
# [33] = target: Neu5Ac(a2-6)Gal(b1-4)GlcNAc(b1-3)GalNAc
# Outline: as §1
# [34] = target: Neu5Ac(a2-6)Gal(b1-4)GlcNAc(b1-3)[Neu5Ac(a2-6)Gal(b1-4)GlcNAc(b1-6)]GalNAc
# Outline: as §1
binder,measurement,setting,value
B1,glycan array binding signal (z-score),Neu5Ac(a2-3)GalNAc,0.03
same,glycan array binding signal (z-score),[1],-0.309
same,glycan array binding signal (z-score),[2],0.418
same,glycan array binding signal (z-score),[3],0.963
same,glycan array binding signal (z-score),[4],-2.19
same,glycan array binding signal (z-score),[5],-0.105
same,glycan array binding signal (z-score),Neu5Ac(a2-6)Gal,0.373
same,glycan array binding signal (z-score),[6],-0.111
same,glycan array binding signal (z-score),Neu5Ac(a2-6)Gal(b1-4)Glc,-0.019
same,glycan array binding signal (z-score),[7],0.028
same,glycan array binding signal (z-score),[8],0.302
same,glycan array binding signal (z-score),[9],-0.378
same,glycan array binding signal (z-score),[10],-1.64
same,glycan array binding signal (z-score),[11],-1.47
same,glycan array binding signal (z-score),[12],0.123
same,glycan array binding signal (z-score),[13],-1.47
same,glycan array binding signal (z-score),[14],0.486
same,glycan array binding signal (z-score),[15],0.238
same,glycan array binding signal (z-score),[16],0.808
same,glycan array binding signal (z-score),[17],-1.03
same,glycan array binding signal (z-score),[18],-0.688
same,glycan array binding signal (z-score),[19],-0.95
same,glycan array binding signal (z-score),[20],0.227
same,glycan array binding signal (z-score),[21],0.205
same,glycan array binding signal (z-score),[22],0.302
same,glycan array binding signal (z-score),[23],0.053
same,glycan array binding signal (z-score),[24],-0.158
same,glycan array binding signal (z-score),[25],0.133
same,glycan array binding signal (z-score),[26],-0.77
same,glycan array binding signal (z-score),[27],0.197
same,glycan array binding signal (z-score),[28],-1.44
same,glycan array binding signal (z-score),[29],-0.279
same,glycan array binding signal (z-score),[30],-1.83
same,glycan array binding signal (z-score),[31],-1.55
same,glycan array binding signal (z-score),[32],-0.008
same,glycan array binding signal (z-score),[33],0.093
same,glycan array binding signal (z-score),[34],-1.4

# As a short view, part of the list above:
binder,measurement,setting,value
B1,glycan array binding signal (z-score),[2],0.418
same,glycan array binding signal (z-score),[3],0.963

# From the supplement of paper PMC8728848
